In US20150148403A1 (ACADEMIA SINICA, published 2015):
Results are given in words; binding and its absence hold for the method and conditions named. Binding seen in cells or lysates may run through a third protein. Some results given as binding are weak or reduced against the parent protein; the word gives no strength. Tags and fused reporters may be left off the sequences shown.

Biological target: T1, HA-tagged PLZF/RARA
T1 sequence: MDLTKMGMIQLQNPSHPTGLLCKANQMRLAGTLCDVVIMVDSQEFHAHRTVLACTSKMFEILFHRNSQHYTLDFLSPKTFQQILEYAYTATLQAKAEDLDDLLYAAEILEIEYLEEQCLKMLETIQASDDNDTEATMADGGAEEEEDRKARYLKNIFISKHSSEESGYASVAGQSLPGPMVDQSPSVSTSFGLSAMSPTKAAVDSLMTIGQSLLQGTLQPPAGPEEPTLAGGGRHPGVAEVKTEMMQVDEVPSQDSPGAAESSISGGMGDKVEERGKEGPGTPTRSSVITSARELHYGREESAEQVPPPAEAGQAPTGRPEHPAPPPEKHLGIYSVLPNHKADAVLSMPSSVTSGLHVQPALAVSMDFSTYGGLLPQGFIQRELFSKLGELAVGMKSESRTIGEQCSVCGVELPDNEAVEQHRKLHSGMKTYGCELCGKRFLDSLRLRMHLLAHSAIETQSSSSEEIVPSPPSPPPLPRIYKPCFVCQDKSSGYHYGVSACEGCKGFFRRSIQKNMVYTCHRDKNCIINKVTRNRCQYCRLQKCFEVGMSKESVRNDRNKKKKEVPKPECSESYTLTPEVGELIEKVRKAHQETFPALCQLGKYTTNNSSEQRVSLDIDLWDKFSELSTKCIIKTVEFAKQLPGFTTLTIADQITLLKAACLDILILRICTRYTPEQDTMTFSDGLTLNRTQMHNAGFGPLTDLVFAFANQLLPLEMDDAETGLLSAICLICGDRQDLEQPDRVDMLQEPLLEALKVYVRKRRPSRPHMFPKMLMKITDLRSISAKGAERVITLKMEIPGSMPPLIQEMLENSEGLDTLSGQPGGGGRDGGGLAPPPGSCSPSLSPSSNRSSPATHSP
Test: co-immunoprecipitation from transfected HEK-293T cells

B1: USP37 C-terminal deletion mutant (1-700) (enzyme, not shown: small tags and cut ends)
chain: MSPLKIHGPIRIRSMQTGITKWKEGSFEIVEKENKVSLVVHYNTGGIPRIFQLSHNIKNVVLRPSGAKQSRLMLTLQDNSFLSIDKVPSKDAEEMRLFLDAVHQNRLPAAMKPSQGSGSFGAILGSRTSQKETSRQLSYSDNQASAKRGSLETKDDIPFRKVLGNPGRGSIKTVAGSGIARTIPSLTSTSTPLRSGLLENRTEKRKRMISTGSELNEDYPKENDSSSNNKAMTDPSRKYLTSSREKQLSLKQSEENRTSGLLPLQSSSFYGSRAGSKEHSSGGTNLDRTNVSSQTPSAKRSLGFLPQPVPLSVKKLRCNQDYTGWNKPRVPLSSHQQQQLQGFSNLGNTCYMNAILQSLFSLQSFANDLLKQGIPWKKIPLNALIRRFAHLLVKKDICNSETKKDLLKKVKNAISATAERFSGYMQNDAHEFLSQCLDQLKEDMEKLNKTWKTEPVSGEENSPDISATRAYTCPVITNLEFEVQHSIICKACGEIIPKREQFNDLSIDLPRRKKPLPPRSIQDSLDLFFRAEELEYSCEKCGGKCALVRHKFNRLPRVLILHLKRYSFNVALSLNNKIGQQVIIPRYLTLSSHCTENTKPPFTLGWSAHMAISRPLKASQMVNSCITSPSTPSKKFTFKSKSSLALCLDSDSEDELKRSVALSQRLCEMLGNEQQQEDLEKDSKLCPIEPDKSELENSGF
  binding: binds
